Publication PMC10575931
These are yes or no findings as the source states them, for the method shown. In cells and extracts the contact can be indirect. Some entries that bind do so weakly or less than the wild type. For some of these results: Tags and fused reporters may be left off the sequences shown.

The chains behind the UniProt entries cited, without tags or fusion partners. Where a name states a change or a piece, a line headed by the entry shows the natural chain unless it says otherwise.
UniProt Q8TD16: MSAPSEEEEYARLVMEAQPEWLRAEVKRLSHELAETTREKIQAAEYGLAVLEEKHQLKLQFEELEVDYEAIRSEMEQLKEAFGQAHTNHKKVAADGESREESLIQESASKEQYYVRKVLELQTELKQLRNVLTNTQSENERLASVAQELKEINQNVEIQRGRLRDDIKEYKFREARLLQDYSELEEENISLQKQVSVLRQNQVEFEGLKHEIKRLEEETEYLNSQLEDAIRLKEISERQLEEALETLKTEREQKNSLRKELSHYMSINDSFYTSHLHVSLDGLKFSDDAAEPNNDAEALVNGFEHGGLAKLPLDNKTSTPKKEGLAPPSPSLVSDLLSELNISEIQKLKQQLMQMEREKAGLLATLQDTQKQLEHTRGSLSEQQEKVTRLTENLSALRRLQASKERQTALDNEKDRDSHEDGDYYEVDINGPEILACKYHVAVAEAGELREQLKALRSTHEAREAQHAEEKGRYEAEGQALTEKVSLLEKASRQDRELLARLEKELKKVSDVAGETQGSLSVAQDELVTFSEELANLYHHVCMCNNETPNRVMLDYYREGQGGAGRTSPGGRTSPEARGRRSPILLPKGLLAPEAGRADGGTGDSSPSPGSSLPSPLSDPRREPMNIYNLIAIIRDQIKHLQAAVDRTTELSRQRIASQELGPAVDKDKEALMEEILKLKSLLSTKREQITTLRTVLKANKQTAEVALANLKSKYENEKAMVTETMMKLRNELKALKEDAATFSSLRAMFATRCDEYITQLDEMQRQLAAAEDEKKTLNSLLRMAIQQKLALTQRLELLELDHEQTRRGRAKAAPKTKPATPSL
UniProt P42224: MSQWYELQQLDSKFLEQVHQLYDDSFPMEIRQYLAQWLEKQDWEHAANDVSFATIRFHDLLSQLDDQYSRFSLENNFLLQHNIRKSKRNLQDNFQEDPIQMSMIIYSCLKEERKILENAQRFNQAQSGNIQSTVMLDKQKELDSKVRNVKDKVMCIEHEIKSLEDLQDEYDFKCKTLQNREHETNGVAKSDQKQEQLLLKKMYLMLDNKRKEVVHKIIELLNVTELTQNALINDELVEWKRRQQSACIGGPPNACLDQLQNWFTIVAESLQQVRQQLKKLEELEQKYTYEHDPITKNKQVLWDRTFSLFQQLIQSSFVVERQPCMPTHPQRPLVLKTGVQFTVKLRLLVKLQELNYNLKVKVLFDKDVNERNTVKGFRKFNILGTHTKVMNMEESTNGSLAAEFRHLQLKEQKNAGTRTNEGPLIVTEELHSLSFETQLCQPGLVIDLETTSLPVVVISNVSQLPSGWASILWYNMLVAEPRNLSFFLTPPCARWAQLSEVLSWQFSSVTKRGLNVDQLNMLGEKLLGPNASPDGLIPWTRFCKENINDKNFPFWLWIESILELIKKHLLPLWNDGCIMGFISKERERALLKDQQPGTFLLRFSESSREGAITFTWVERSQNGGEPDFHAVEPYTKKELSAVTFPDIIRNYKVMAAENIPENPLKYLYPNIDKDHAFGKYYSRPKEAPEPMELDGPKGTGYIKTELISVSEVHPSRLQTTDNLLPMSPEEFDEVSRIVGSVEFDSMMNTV
UniProt P40763: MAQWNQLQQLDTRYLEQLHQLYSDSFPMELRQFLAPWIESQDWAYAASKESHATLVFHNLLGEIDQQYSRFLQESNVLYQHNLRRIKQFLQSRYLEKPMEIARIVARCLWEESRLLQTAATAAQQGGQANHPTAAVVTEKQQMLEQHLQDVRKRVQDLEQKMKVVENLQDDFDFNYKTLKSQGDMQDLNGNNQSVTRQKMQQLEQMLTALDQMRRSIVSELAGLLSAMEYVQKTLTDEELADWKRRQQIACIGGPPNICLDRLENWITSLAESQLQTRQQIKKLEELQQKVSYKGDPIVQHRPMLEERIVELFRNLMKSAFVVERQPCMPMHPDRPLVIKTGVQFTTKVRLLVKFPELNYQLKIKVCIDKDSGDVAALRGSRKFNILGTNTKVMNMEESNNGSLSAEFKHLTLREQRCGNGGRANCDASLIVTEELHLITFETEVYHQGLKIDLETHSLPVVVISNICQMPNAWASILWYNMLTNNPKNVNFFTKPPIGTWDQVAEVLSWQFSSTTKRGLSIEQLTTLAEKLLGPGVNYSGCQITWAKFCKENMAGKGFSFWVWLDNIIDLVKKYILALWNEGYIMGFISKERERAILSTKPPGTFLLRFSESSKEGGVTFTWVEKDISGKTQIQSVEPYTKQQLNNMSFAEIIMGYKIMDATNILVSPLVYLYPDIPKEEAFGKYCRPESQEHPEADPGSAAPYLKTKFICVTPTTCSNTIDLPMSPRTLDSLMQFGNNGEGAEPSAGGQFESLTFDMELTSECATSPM
UniProt P40337: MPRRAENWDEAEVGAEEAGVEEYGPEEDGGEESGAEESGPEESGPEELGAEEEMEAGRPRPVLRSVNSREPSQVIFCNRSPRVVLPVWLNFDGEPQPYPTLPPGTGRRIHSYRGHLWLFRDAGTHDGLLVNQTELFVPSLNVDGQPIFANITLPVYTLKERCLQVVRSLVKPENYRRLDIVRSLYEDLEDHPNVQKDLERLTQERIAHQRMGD

How the values were obtained:
[1] = biological target: S-HA-tagged BICD2, full length (UniProt Q8TD16); assay: co-IP; HEK293T transfected to express BICD2 and Mock or STAT1; with or without 1 μM RSL3 for 6 h; lysates precipitated with S-protein Agarose beads; immunoblot with anti-FLAG antibody (Fig. 7D)
[2] = biological target: S-HA-tagged BICD2, full length (UniProt Q8TD16); assay: co-IP; HEK293T co-transfected; 10 μM MG132 for 10 h before collection; lysates precipitated with S-protein Agarose beads (S-tagged BICD2 as bait); immunoblot with anti-FLAG antibody (Fig. 2E, Fig. 6C)
[3] = biological target: mutant BICD2 (S615D) (UniProt Q8TD16); assay: as above
[4] = biological target: FLAG-tagged STAT1, full length (UniProt P42224); assay: co-IP; HEK293T co-transfected with a GFP-tagged and a FLAG-tagged protein; lysates precipitated with anti-FLAG antibody; immunoblot with anti-GFP antibody; with or without 1 μM RSL3 for 6 h (Fig. 7C) (Fig. 7B, C, E, H)
[5] = biological target: T1, FLAG-tagged STAT4 (UniProt Q14765); assay: as above
T1 sequence: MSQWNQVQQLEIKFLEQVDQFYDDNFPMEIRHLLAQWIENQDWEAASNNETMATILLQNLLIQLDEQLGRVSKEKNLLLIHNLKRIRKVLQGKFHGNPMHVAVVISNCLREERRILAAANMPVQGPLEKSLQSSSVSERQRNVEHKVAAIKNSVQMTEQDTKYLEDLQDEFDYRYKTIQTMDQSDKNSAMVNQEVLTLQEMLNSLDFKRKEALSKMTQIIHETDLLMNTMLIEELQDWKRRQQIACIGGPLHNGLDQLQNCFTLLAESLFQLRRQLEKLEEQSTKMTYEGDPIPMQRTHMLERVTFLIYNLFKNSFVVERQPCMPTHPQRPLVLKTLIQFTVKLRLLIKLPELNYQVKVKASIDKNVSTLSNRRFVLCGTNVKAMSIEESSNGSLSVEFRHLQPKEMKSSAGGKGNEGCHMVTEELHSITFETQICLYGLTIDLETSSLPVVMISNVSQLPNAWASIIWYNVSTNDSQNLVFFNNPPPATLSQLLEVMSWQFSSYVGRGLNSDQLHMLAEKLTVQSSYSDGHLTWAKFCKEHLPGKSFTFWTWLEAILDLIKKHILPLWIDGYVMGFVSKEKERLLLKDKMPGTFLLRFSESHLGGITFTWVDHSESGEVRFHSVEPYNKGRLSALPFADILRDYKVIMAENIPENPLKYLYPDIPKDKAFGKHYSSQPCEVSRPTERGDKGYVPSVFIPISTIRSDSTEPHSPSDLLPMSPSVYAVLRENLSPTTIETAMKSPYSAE

[6] = biological target: FLAG-tagged STAT3 (UniProt P40763); assay: as above
[7] = biological target: T2, FLAG-tagged STAT6 (UniProt P42226); assay: as above
T2 sequence: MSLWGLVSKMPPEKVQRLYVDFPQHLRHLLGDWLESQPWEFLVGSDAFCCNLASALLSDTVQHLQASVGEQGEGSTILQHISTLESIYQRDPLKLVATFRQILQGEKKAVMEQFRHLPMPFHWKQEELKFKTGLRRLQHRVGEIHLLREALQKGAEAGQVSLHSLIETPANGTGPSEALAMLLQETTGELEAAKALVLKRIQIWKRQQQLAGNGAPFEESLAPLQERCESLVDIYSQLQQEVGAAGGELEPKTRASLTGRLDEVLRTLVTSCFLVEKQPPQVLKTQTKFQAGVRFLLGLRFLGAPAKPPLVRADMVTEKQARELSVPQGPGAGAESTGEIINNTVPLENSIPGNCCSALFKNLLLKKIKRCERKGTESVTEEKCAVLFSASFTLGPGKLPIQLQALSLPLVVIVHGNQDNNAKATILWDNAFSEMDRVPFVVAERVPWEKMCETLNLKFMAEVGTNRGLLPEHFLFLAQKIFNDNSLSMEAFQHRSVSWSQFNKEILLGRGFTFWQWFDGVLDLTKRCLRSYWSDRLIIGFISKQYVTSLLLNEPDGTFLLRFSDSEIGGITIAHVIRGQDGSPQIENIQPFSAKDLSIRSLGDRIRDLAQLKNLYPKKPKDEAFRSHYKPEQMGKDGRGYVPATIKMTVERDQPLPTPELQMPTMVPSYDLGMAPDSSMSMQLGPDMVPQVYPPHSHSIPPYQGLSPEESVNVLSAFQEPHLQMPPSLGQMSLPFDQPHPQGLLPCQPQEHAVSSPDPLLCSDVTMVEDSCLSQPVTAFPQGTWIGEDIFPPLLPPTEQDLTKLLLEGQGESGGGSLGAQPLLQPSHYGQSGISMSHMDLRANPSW

[8] = biological target: FLAG-tagged VHL, full length (UniProt P40337); assay: co-IP; HEK293T co-transfected with GFP-tagged BICD2 and FLAG-tagged VHL constructs; 10 μM MG132 for 10 h before collection; lysates precipitated with anti-FLAG M2 beads; immunoblot with anti-GFP antibody (Fig. 2G)
[9] = biological target: FLAG-tagged BICD2, full length (UniProt Q8TD16); assay: co-IP; HEK293T co-transfected with a GFP-tagged and a FLAG-tagged protein; lysates precipitated with anti-FLAG antibody; immunoblot with anti-GFP antibody; with or without 1 μM RSL3 for 6 h (Fig. 7C) (Fig. 7B, C, E, H)
[10] = biological target: BICD2 (construct of Fig. 2C and Fig. 6B, tag not given) (UniProt Q8TD16); assay: co-IP; HEK293T transfected with the indicated plasmids; with or without 10 μM MG132 for 10 h (Fig. 2C) or 10 μM Vemurafenib for 12 h (Fig. 6B); lysis buffer 10% glycerol, 0.5% NP-40, 150 mM NaCl, 0.1 mM EDTA; precipitated with 'appropriate antibodies'; immunoblot

Substance: FLAG-tagged STAT1, full length (from UniProt P42224 1-750)
- binding [1]: binds

Substance: FLAG-tagged VHL, full length (from UniProt P40337 1-213)
- binding [2]: binds
- binding [3]: binds weakly

Substance: GFP-tagged BICD2 (from UniProt Q8TD16 1-824)
- binding [4]: binds
- binding [5]: binds
- binding [6]: binds
- binding [7]: binds
- binding [8]: binds

Substance: GFP-tagged STAT1 (from UniProt P42224 1-750)
- binding [9]: binds

Substance: VHL (construct of Fig. 2C and Fig. 6B, tag not told in the text) (from UniProt P40337 1-213)
- binding [10]: binds
